The term AC50 denotes the midpoint of the concentration-response curve, whichever way the signal moves.

Some of the results follow. Shown are side measurements of this screen, not its main read-out; they come without a call. Compounds called inactive in the main read-out are mostly missing here. Words in brackets tell the shape of the fitted curve; partial curves, single points and poor fits give uncertain potencies.

This assay can be described thus: qHTS Assay to Find Inhibitors of Chronic Active B-Cell Receptor Signaling. The conditions noted are these: ABC-DLBCL IkBa-CBG/CBR reporter, luminescence ratio (green luciferase fused to IkBa over red control in TMD8 lymphoma cells), 4 h. In a few lines:
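TMD8 ABC-DLBCL cells carrying doxycycline-inducible green luciferase fused to IkappaBalpha plus unfused red luciferase were exposed to compounds (up to 46 uM) for 4 hrs at 37C. Activity came from the overlap-corrected green/red luminescence ratio.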
On the technique in general: Quantitative high-throughput screening tests each substance at several concentrations.

The mark [1] stands for this setting: measured here: CBR red luminescence, cell number.
Where [2] appears, read: measured here: IkBa-CBG green luminescence.

Consider `Cc1cc(NC(=O)c2cc3cccc([N+](=O)[O-])c3[nH]2)ccc1F`, for which the AC50 under setting [1] is 22.4 µM [falling, single point].

In the case of `C/C(=N\Nc1nc(C(C)(C)C)cs1)c1ccc(O)cc1`, under setting [1], the AC50 was 0.112 µM [rising, full curve, poor fit].

In the case of `COC(=O)c1c(NC(=O)CC2Nc3cc(C)c(C)cc3NC2=O)sc(C)c1C` (configuration not stated), the AC50 under setting [1] is 1.16 µM [rising, full curve, poor fit]. Consider `Cc1cccnc1NC(=O)Nc1cccc(Cl)c1`, for which the AC50 under setting [1] was 0.631 µM [rising, full curve, poor fit]. As for `Fc1ccc(/C=N/Nc2ncnc3nc[nH]c23)cc1F`, the AC50 runs as follows: under setting [1], 2.31 µM [rising, partial curve, poor fit]; under setting [2], 23.1 µM [falling, single point]. Regarding `O=c1[nH]ncc(N/N=C/c2ccccc2)c1Cl`, the AC50 under setting [1] was 32.6 µM [rising, single point].

Turning to `CCn1c(SCC(=O)NCc2ccco2)nnc1-c1c[nH]c2ccccc12`, under setting [1], the concentration at half-maximal activity (AC50) is 3.26 µM [falling, single point]. Same read-out and setting: in the case of `COC(=O)c1cc(=O)n(Cc2ccc3c(c2)OCO3)c(=Nc2ccc(F)cc2)s1` it was 6.51 µM [falling, full curve]; in that of `COCCNC(=S)NNC(=O)c1ccco1`, 20.6 µM [falling, single point]; in that of `COc1cccc(C#Cc2c(C=O)n(C)c3ccccc23)c1`, 1.46 µM [rising, full curve]. With `COCCCNC(=O)CC(NS(=O)(=O)c1ccc(F)cc1)c1ccc(OC)cc1` (configuration not stated), the AC50 under setting [1] is 0.103 µM [rising, full curve, poor fit]. Turning to `Cn1c(=O)[nH]c(=O)c2c1nc(N1CCN(Cc3ccccc3)CC1)n2CCSc1ncccn1`, the concentration at half-maximal activity (AC50) under setting [1] was 29.1 µM [falling, single point]. For `COc1cccc(/C=N/NC(=S)NC2CC3CC2C2C=CCC32)c1O` (configuration not stated), the AC50 under setting [2] was 0.251 µM [rising, full curve, poor fit]. For `c1cc2ccc3ccc(CN4CCOCC4)c4ccc(c1)c2c34`, under setting [1], the AC50 was 11.2 µM [rising, partial curve]. Turning to `O=c1c(Cl)c(NCC2CCCO2)cnn1C12CC3CC(CC(C3)C1)C2` (configuration not stated), under setting [1], the AC50 was 2 µM [rising, partial curve, poor fit]. Consider `CCN1CCN(S(=O)(=O)c2cc(OCC(=O)NC3CCCCC3)c(C)cc2Cl)CC1`, for which, under setting [1], the AC50 is 0.0058 µM [rising, full curve, poor fit].

On to `COc1cc(OC)cc(-c2nnc(SCC(=O)N(Cc3ccccc3)C(C)(C)C)o2)c1`, for which, under setting [1], the AC50 is 0.112 µM [falling, full curve, poor fit]. Still for that read-out and setting: the figure for `C[C@@H]1CC=C[C@H]2[C@H]1C(=O)N(Cc1ccccc1)[C@H]2c1ccc(F)c(Br)c1` is 35.5 µM [falling, single point]. In the case of `COc1ccccc1C(=O)NCCc1c(C)[nH]c2c(C)ccc(F)c12`, the AC50 under setting [1] is 0.631 µM [rising, full curve, poor fit]. On to `COc1cc(-n2c(C)nc3cccnc32)c(Cl)cc1C(=O)O`, for which, under setting [1], the AC50 is 22.4 µM [falling, partial curve, poor fit]. Still for that read-out and setting: in the case of `COc1cc(NC(=S)N2CCN(c3ccccn3)CC2)cc(OC)c1` it was 2.06 µM [falling, full curve].

On to `Cn1c(=O)c2c(nc(Br)n2CCCc2ccccc2)n(C)c1=O`, for which the concentration at half-maximal activity (AC50) under setting [1] was 3.55 µM [falling, partial curve, poor fit]. As for `O=C(C1=C(O)C(=O)N(c2nccs2)C1c1ccccc1)c1cc2ccccc2o1` (configuration not stated), the concentration at half-maximal activity (AC50) under setting [1] was 12.6 µM [falling, single point]. Turning to `c1ccc(Nc2nc(-c3ccncc3)cs2)cc1`, the AC50 under setting [1] was 29.1 µM [falling, single point]. For the molecule `Cc1ccccc1-n1c(SCC(=O)N/N=C/C=C/c2ccccc2[N+](=O)[O-])nc2ccccc2c1=O`, the AC50 under setting [1] is 0.82 µM [rising, full curve]. The same measure, in the same setting: in the case of `Cc1nc2ccc(-c3nc4ccccc4o3)cc2[nH]1` it was 11.2 µM [falling, single point]; in that of `O=c1c2ccccc2oc2nc(-c3ccco3)n(Cc3ccccc3)c(=O)c12`, 3.55 µM [falling, full curve]; in that of `COc1ccc(CCNC2=C(Cl)C(=O)N(CCc3ccc(OC)c(OC)c3)C2=O)cc1OC`, 14.6 µM [rising, partial curve, poor fit]. The same measure, in the same setting: the figure for `CCOC(=O)c1sc(NC(=O)Nc2ccccc2)cc1C` is 29.1 µM [falling, partial curve, poor fit]. On the same count and under the same terms, in the case of `O=C(NNC(=S)Nc1ccc(Cl)c(Cl)c1)c1cccc([N+](=O)[O-])c1` it was 22.4 µM [rising, partial curve, poor fit]; in that of `Cc1ccc(C2=NCN(c3ccc(C(=O)O)cc3)C(=S)N2)cc1`, 0.891 µM [falling, full curve]; in that of `COc1ccccc1N1CCN(S(=O)(=O)c2ccc3nc(-c4ccccc4)[nH]c3c2)CC1`, 18.4 µM [falling, single point]. Turning to `O=C(Oc1ccccc1)c1cccc2cccc(C(=O)Oc3ccccc3)c12`, the AC50 under setting [1] is 11.2 µM [rising, partial curve].

`C=CCNCCCOc1ccc(Cl)cc1Br`: the AC50 under setting [1] is 29.1 µM [falling, single point].

Regarding `Cc1nonc1C(=O)N/N=C/c1ccccc1`, the AC50 under setting [1] was 15.8 µM [falling, single point].

Consider `C=CCn1c(SCC(=O)NC23CC4CC(CC(C4)C2)C3)nc2cc(C(=O)O)ccc2c1=O`, for which the AC50 under setting [1] was 14.1 µM [falling, partial curve, poor fit]. Same read-out and setting: the figure for `COc1cccc(Cn2cc(C(=O)NCCN(C)C)nn2)c1` is 0.631 µM [falling, full curve, poor fit]; for `CCN1CCN(C(=O)N2CCOCC2)CC1` it is 3.98 µM [rising, partial curve, poor fit]. For the molecule `O=C(N/N=C/c1sc(N2CCCCC2)nc1-c1cccs1)c1cccnc1`, under setting [1], the half-maximal activity concentration (AC50) is 35.5 µM [falling, partial curve, poor fit].

In the case of `O=C(NCc1ccco1)C1CCC(N2C(=O)c3ccccc3C2=O)CC1` (configuration not stated), under setting [1], the half-maximal activity concentration (AC50) is 11.2 µM [rising, partial curve, poor fit]. In the case of `O=C(Cn1nc(C(=O)O)c2ccccc2c1=O)NCc1ccco1`, the AC50 under setting [1] was 12.6 µM [rising, partial curve, poor fit].

The record behind these values is PubChem BioAssay AID493014 (National Center for Advancing Translational Sciences (NCATS), 2011).
